Assay results published in paper PMC12697865, “ZFPL1 Promotes Colorectal Cancer Progression by Stabilizing ASS1 to Drive the Urea Cycle and M2 Macrophage‐Mediated Metastatic Colonization” (Advanced Science, 2025).
These are yes or no findings as the source states them, for the method shown. In cells and extracts the contact can be indirect. Here binding means that the protein was enriched with, or labelled near, the bait; the list need not be complete.

Sequences of proteins named here, by UniProt entry; tags and fusion partners are left off.
UniProt Q9UPN9: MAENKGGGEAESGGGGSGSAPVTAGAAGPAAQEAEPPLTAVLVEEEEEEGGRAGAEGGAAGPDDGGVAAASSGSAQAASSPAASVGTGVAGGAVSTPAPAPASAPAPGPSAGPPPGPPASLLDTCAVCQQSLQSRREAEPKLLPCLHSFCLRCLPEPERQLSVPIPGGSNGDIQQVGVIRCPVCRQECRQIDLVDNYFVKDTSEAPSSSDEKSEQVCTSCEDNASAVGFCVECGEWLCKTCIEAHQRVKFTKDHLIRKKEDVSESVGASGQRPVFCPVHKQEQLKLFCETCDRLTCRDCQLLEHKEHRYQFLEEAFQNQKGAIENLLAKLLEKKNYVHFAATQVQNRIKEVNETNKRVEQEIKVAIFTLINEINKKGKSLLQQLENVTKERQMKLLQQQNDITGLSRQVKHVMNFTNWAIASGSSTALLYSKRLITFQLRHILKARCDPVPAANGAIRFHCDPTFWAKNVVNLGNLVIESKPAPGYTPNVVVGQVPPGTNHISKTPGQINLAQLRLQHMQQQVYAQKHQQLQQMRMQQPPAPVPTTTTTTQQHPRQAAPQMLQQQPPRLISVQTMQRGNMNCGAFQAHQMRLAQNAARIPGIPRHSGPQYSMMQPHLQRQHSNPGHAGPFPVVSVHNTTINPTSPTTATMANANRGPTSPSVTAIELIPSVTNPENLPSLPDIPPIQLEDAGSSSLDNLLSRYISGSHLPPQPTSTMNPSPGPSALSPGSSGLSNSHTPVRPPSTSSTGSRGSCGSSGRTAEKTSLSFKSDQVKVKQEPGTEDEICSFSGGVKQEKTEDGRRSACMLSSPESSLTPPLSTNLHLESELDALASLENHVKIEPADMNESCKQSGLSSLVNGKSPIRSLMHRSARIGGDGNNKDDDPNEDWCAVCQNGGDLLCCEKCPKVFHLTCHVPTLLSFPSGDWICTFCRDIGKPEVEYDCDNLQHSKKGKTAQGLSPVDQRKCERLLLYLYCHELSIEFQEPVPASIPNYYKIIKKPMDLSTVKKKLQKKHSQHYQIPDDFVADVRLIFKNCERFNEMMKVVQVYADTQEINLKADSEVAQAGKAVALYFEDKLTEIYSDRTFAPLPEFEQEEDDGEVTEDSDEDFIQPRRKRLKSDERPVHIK

T1: ASS1 in CRC cells (UniProt P00966)
T1 sequence: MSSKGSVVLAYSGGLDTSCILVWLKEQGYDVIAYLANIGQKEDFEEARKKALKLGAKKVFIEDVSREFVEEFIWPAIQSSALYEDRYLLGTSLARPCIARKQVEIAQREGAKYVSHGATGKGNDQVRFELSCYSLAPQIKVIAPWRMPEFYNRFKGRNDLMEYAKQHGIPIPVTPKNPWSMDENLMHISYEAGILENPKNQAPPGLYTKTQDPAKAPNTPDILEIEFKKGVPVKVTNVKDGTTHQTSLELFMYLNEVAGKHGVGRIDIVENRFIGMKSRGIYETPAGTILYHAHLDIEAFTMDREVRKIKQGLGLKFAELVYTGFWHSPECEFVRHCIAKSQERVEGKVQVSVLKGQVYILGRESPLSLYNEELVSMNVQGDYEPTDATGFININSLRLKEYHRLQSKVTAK

T2: ZFPL1 immunoprecipitated for mass spectrometry (human) (UniProt O95159)
T2 sequence: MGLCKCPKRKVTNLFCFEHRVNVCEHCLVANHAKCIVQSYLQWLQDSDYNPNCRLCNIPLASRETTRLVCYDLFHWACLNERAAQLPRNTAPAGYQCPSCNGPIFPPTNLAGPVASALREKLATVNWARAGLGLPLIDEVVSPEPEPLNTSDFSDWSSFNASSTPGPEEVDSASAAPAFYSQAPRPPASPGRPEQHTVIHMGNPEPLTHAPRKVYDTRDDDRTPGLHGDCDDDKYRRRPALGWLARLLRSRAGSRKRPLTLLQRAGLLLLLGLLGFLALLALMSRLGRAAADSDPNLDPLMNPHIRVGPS

B1: ASS1 in CRC cells (protein, UniProt P00966 1-412)
chain: T1 sequence

Legend:
ASS1 in CRC cells = biological target: T1, ASS1 in CRC cells; assay: affinity purification with mass spectrometry; LC-MS/MS of ASS1-bound proteins (ASS1 IP/MS)
[1] = biological target: T2, ZFPL1 immunoprecipitated for mass spectrometry (human); assay: affinity purification with mass spectrometry; IP of ZFPL1 and negative control, SDS-PAGE band cut out for mass spectrometry (TripleTOF 5600); CRC cells by the results, HEK293T transfected by the methods

| Molecule | binding (ASS1 in CRC cells) | binding [1] |
| --- | --- | --- |
| TRIM33 (tripartite motif containing 33) in CRC cells (from UniProt Q9UPN9 1-1127) | binds |  |
| B1 |  | binds |
